{
  "source": "ChEMBL document CHEMBL4513145",
  "about": "“CO-ADD screening of Biotechnology Research Centre (C.R.B.t) (Algeria) compounds”",
  "tested_on": "Pseudomonas aeruginosa",
  "settings": "Concentration 32 ug.mL-1, ASSAY_TEST Inhibition of Bacterial Growth, detection method Absorption (OD600), MEDIA CAMHB, plate type 384well, NBS, CORNING #3640, time 18 hr",
  "note": "Several values for one entry are separate records, joined by “and”; a condition that tells them apart may be missing. Equal entries are not always repeated. The list shows a part of the results. Results with a measured potency or affinity are listed apart.",
  "data": [
    {"smiles": "CC(C)(C)OC(=O)N1C(O)C2CCCC2N1S(=O)(=O)c1ccc([N+](=O)[O-])cc1", "note": "(stereo not drawn)", "values": [
      {"measurement": "Inhibition", "value": -23.89, "unit": "%"}
    ]},
    {"smiles": "CC1C(O)N(C(=O)OC(C)(C)C)N(S(=O)(=O)c2ccc([N+](=O)[O-])cc2)C1C", "note": "(stereo not drawn)", "values": [
      {"measurement": "Inhibition", "value": 5.31, "unit": "%"}
    ]},
    {"smiles": "O=C(OCc1ccccc1)N1OC(O)C2CCCCC21", "note": "(stereo not drawn)", "values": [
      {"measurement": "Inhibition", "value": 10.75, "unit": "%"}
    ]},
    {"smiles": "CCCCCCCC1CN(S(=O)(=O)c2ccc(C)cc2)N(C(=O)OC(C)(C)C)C1=O", "note": "(stereo not drawn)", "values": [
      {"measurement": "Inhibition", "value": 2.47, "unit": "%"}
    ]},
    {"smiles": "O=C(OCc1ccccc1)N1CC(Cc2ccccc2)C(O)O1", "note": "(stereo not drawn)", "values": [
      {"measurement": "Inhibition", "value": -8.1, "unit": "%"}
    ]},
    {"smiles": "CC1CN(S(=O)(=O)c2ccc([N+](=O)[O-])cc2)N(C(=O)OC(C)(C)C)C1O", "note": "(stereo not drawn)", "values": [
      {"measurement": "Inhibition", "value": -10.15, "unit": "%"}
    ]},
    {"smiles": "CC1CN(C(=O)OCc2ccccc2)OC1O", "note": "(stereo not drawn)", "values": [
      {"measurement": "Inhibition", "value": 27.74, "unit": "%"}
    ]},
    {"smiles": "O=C1ON(C(=O)OCc2ccccc2)CC1Cc1ccccc1", "note": "(stereo not drawn)", "values": [
      {"measurement": "Inhibition", "setting": "32 ug/mL", "value": "8.06% and 19.06%"}
    ]},
    {"smiles": "Cc1ccc(S(=O)(=O)N2CC(Cc3ccccc3)C(=O)N2S(=O)(=O)c2ccc(C)cc2)cc1", "note": "(stereo not drawn)", "values": [
      {"measurement": "Inhibition", "setting": "32 ug/mL", "value": "11.67% and 7.14%"}
    ]},
    {"smiles": "Cc1ccc(S(=O)(=O)N2CC(C)C(=O)N2S(=O)(=O)c2ccc(C)cc2)cc1", "note": "(stereo not drawn)", "values": [
      {"measurement": "Inhibition", "setting": "32 ug/mL", "value": "6.74% and 18.06%"}
    ]},
    {"smiles": "CCCCCCCC1CN(S(=O)(=O)c2ccc(C)cc2)N(S(=O)(=O)c2ccc(C)cc2)C1O", "note": "(stereo not drawn)", "values": [
      {"measurement": "Inhibition", "value": 13.24, "unit": "%"}
    ]},
    {"smiles": "CCCCCCCC1CN(S(=O)(=O)c2ccc(C)cc2)N(C(=O)OC(C)(C)C)C1O", "note": "(stereo not drawn)", "values": [
      {"measurement": "Inhibition", "value": 11.9, "unit": "%"}
    ]},
    {"smiles": "CC1CN(S(=O)(=O)c2ccc([N+](=O)[O-])cc2)N(C(=O)OC(C)(C)C)C1=O", "note": "(stereo not drawn)", "values": [
      {"measurement": "Inhibition", "setting": "32 ug/mL", "value": "17.07% and 8.92% and 22.9%"}
    ]}
  ]
}
